Reference: article PMC4564171 (PLoS ONE, 2015)
Results are given in words; binding and its absence hold for the method and conditions named.

Target: MalE-VirF (maltose binding protein–VirF fusion protein) (Shigella flexneri) (UniProt P0A2T1)
Experiment: SEC; analytical gel filtration on Superose 12; MalE-VirF 0.75 mg/mL; amylose resin binding buffer (20 mM Tris-HCl, 500 mM NaCl, 1 mM EDTA, pH 7.4); 0.75 mL/min; compared with a 4-point molecular weight calibration curve; both purified

Substance: MalE-VirF (maltose binding protein–VirF fusion protein) (from UniProt P0A2T1 1-262)
- binding: no binding (tested: 0.75 mg/mL)
